Laboratory results taken from publication PMC5613068, “Resolving distinct molecular origins for copper effects on PAI-1” (Journal of Biological Inorganic Chemistry, 2017).

Assay: Isothermal titration calorimetry of Cu(II) binding to PAI-1
Conditions: 10 °C; for ΔG obs / ΔH obs / −TΔS obs: one-site model
Procedure: Isothermal titration calorimetry (ITC) was used to determine the thermodynamic parameters associated with Cu(II) interactions with PAI-1. Active and latent forms of wild-type and variants of PAI-1 were dialyzed into 100 mM MOPS, 250 mM (NH4)2SO4 at 10 °C for 2 h. Because of the relative instability of the H2AH3A variant of PAI-1, our studies on H2AH3A PAI-1 utilized a variant that contained an additional mutation, W175F. […] Residue 175 is not proximal to the N terminus and is not involved in metal ion coordination or its subsequent effects on PAI-1 stability. Copper solutions were prepared by diluting CuSO4 into the matched dialysate buffer. The copper stock concentration was verified using atomic absorbance spectroscopy, and the pH corrected to 7.4 at 10 °C using NaOH. Twenty micromolar PAI-1 (2.2 mL total volume) and copper solution (4 mL) were degassed under vacuum for 10 min at 5 °C prior to loading into the (Malvern) MicroCal VP-ITC. The PAI-1 solution was loaded into the ITC cell (1.394 mL), and the copper solution was loaded into the ITC syringe. The reference and experimental ITC cells were equilibrated to 10 °C prior to the start of the experiment. After a preliminary injection of 2 µL, each additional injection consisted of a 4 µL injection at 120 or 240 s intervals. Experiments were performed at least in duplicate. Control experiments measuring dilution heats were performed in which the copper solution was injected into buffer. The data were baseline corrected using NITPIC software (University of Texas, Southwestern), and fit to either a single-site or two-site non-symmetric binding model in SEDPHAT (National Institutes of Health). The data and fits were represented using GUSSI software (University of Texas, Southwestern).

For “plasminogen activator inhibitor-1 [Wild-type]”, the “n value (stoichiometry of Cu(II) binding transition)” value (Cu(II) up to 650–800 μM) was 1.2, the ΔG obs ([Cu(II)] 650 µM) was −10.2 (±0.3) kcal/mol and the ΔH obs ([Cu(II)] 650 µM) was −15.9 (±0.3) kcal/mol. The “−TΔS obs” value ([Cu(II)] 650 µM) was 5.7 (±0.3) kcal/mol, the ΔG obs ([Cu(II)] 700 µM) was −10.0 (±0.7) kcal/mol and the ΔH obs ([Cu(II)] 700 µM) was −16.4 (±0.6) kcal/mol. For the same substance, the “−TΔS obs” value ([Cu(II)] 700 µM) was 6.3 (±0.7) kcal/mol, the ΔG obs ([Cu(II)] 750 µM) was −9.9 (±0.4) kcal/mol and the ΔH obs ([Cu(II)] 750 µM) was −15.9 (±1.2) kcal/mol. For the same substance, the ΔG obs ([Cu(II)] 800 µM) was −9.8 (±0.2) kcal/mol, the ΔH obs ([Cu(II)] 800 µM) was −16.4 (±0.6) kcal/mol and the “−TΔS obs” value ([Cu(II)] 800 µM) was 6.5 (±0.6) kcal/mol. The “average ΔG obs” value (single-site model) was -10.0 kcal/mol, the “average −TΔS obs” value (single-site model) was 5.9 kcal/mol and the “average ΔH obs” value (single-site model, average of replicate data) was -16.2 kcal/mol.
